Data from PMC5296651.
Read-outs that look alike come from different tables or passages of the source. No constants are given. Whether binding was seen depends on the method and setting. In cells and extracts the contact can be indirect. Some binding calls cover weakened binding; strength is not graded here. One block for each molecule: values may come before it.

By UniProt entry, the sequences of proteins in these tests, tags left out.
UniProt Q92769: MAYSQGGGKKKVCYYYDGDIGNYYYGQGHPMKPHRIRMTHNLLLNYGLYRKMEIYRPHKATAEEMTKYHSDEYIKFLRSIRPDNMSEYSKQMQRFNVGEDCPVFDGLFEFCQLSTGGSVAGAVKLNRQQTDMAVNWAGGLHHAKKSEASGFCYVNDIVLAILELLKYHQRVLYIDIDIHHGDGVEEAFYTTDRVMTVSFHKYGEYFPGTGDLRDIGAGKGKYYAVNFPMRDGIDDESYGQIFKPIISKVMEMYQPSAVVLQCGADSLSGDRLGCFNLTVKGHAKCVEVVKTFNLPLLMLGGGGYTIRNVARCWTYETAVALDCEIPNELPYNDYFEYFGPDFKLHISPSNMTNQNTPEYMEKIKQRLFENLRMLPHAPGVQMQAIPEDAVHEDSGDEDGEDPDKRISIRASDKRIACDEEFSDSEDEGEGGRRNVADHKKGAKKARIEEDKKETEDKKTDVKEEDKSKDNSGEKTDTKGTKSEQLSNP

Columns and labels:
Assay in all cases: co-IP; immunoprecipitation with anti-HOPX antibody (anti-IgG as negative control) from lysates of CH, SH, N2-Tert and NP69 cells, IP lysis buffer, overnight at 4 °C, Protein A/G Sepharose beads; western blotting
[1] = target: T1, HOP homeobox (HOPX), endogenous in N2-Tert and NP69 cells (human (endogenous in N2-Tert and NP69)) (UniProt Q9BPY8)
T1 sequence: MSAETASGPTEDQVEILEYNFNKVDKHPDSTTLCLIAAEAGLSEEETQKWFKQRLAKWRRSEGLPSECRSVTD

[2] = target: T2, HOP homeobox (HOPX), stably overexpressed in CNE2 and SUNE1 cells (human) (UniProt Q9BPY8)
T2 sequence: T1 sequence

[3] = target: T1, HOP homeobox (HOPX), endogenous in N2-Tert and NP69 cells (human (endogenous in N2-Tert and NP69)); remark: listed apart in the source
[4] = target: T2, HOP homeobox (HOPX), stably overexpressed in CNE2 and SUNE1 cells (human); remark: listed apart in the source

binding [1]: binds | binding [2]: binds
Molecule: histone deacetylases 2 (HDAC2) (from UniProt Q92769 1-488)

binding [3]: binds | binding [4]: binds
B1: serum response factor (SRF) (protein, UniProt P11831 1-508)
chain: MLPTQAGAAAALGRGSALGGSLNRTPTGRPGGGGGTRGANGGRVPGNGAGLGPGRLEREAAAAAATTPAPTAGALYSGSEGDSESGEEEELGAERRGLKRSLSEMEIGMVVGGPEASAAATGGYGPVSGAVSGAKPGKKTRGRVKIKMEFIDNKLRRYTTFSKRKTGIMKKAYELSTLTGTQVLLLVASETGHVYTFATRKLQPMITSETGKALIQTCLNSPDSPPRSDPTTDQRMSATGFEETDLTYQVSESDSSGETKDTLKPAFTVTNLPGTTSTIQTAPSTSTTMQVSSGPSFPITNYLAPVSASVSPSAVSSANGTVLKSTGSGPVSSGGLMQLPTSFTLMPGGAVAQQVPVQAIQVHQAPQQASPSRDSSTDLTQTSSSGTVTLPATIMTSSVPTTVGGHMMYPSPHAVMYAPTSGLGDGSLTVLNAFSQAPSTMQVSHSQVQEPGGVPQVFLTASSGTVQIPVSAVQLHQMAVIGQQAGSSSNLTELQVVNLDTAHSTKSE
